# Reference: PubChem BioAssay AID1508600 (Functional Genomics Laboratory (NCATS/FGL), 2020)
# Hit rate of the full screen: of about 53,000 sequences, about 3,700 (7%) were called active.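 How the source made its calls: active means gene knockdowns whose robust z-score for IL-1 alpha signal is at least 2 or at most -2, so actives lie on both sides; inactive means the rest.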 Some of the results follow.
# Experiment: Components of the Cytosolic LPS Sensing Pathway: Gene Identification via Genome-wide siRNA Screen;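 further: robust z of the log signal after scaling to non-targeting control siRNA wells of the plate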
# Details: RAW264.7 macrophages, IL-1a HTRF, actives lie on both sides, screened at 100 nM (by protocol), cells primed 5 h with Pam3CSK4 first
# Summary of the method: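 Three distinct siRNAs per gene were tested singly at 100 nM in RAW264.7 macrophages. Following Pam3CSK4 priming and 24 hour LipidA transfection, IL-1a secretion was read by HTRF.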
row,Sequence,z-score
1,GGAACAGGCCGAGUUAGUATT against Olfr414,inactive: 1.45
2,GGCGGAAAAGCAAAUUGGUTT against Pou1f1,inactive: -0.511
3,GGUUGUUAAGGACAAAGCATT against Cox5a,inactive: -1.76
4,GGAUUCGAUUCUUCCAAAATT against Peli2,inactive: 1.58
5,GAUCCUCAUCACAUCCGUGTT against Olfr461,inactive: -1.23
6,CCAAUUCCAACCAGGAUUUTT against Slc26a8,inactive: 0.933
7,CCAAGUCAGUGCUGUAAAGTT against F830104G03Rik,inactive: -1.58
8,CGAGGUGCUGAAAUCUUGGTT against Ddah1,inactive: 0.669
9,CCUUCACUGAGUUCUAUACTT against Pes1,inactive: -0.45
10,GGUCAAAUCAUUAAGGACATT against Pdzk1,inactive: -0.0877
11,GGUCUACCUAAAACUGGAGTT against Cbln4,inactive: 0.337
12,CCGCCUCGUACAUGAUAUUTT against Mrgpra2b,inactive: 0.653
13,CCACUGUCCCAAACAUGUUTT against Olfr847,inactive: -1.46
14,GGAGAGGGUCUUAGUCAGATT against Wasf1,inactive: 0.802
15,CCAAACUUACAAAUAUGCGTT against Sgpp1,inactive: 1.35
16,GGGAAGAAACAUCAGACUATT against Sf3a2,inactive: -1.91
17,GGGCUGCUCAAAGUUUUUGTT against Myadm,inactive: 0.973
18,GGAGGAGGAGCCAGAAAAGTT against Zswim2,inactive: 0.296
19,GGAACUGGAUCCUAGGAUATT against Sh3bp5l,inactive: -1.35
20,GCUACAAGGAACAUUAAAGTT against Sacs,inactive: -0.563
21,CCCGAACCAAGGACAAGUATT against Cdx1,inactive: -1.94
22,GGAAGCUACCUGGAUAUCUTT against Astn2,inactive: 0.0365

row,Sequence,z-score
1,GGGUUUGGUCGUAAACAGCTT against Limd2,inactive: -1.06
2,GGACAGCCAUCUUGAUUUATT against Gstt2,inactive: 0.15
3,GGUUGGACACGAAAGCUUATT against Mecp2,inactive: -1.22
4,GGUGGUGUCAAAAUGAAGCTT against Septin3,inactive: -0.226
5,GCUUUAAGCCCUGCUCUGUTT against Saxo2,inactive: -0.187
6,GGAGAACCCAUUAAAGAAATT against Amd1,inactive: 0.408
7,GGACUAUGGCAAAGAAUCUTT against Rps12,inactive: 0.0955
8,GGAUCCUUCUCUGAAGCAGTT against Olfr657,inactive: -0.39
9,GGAAGAUUUACAAAAACUGTT against Nudt18,inactive: -0.0754
10,GGUGCUGAAGAUGACAUCCTT against Scai,inactive: 0.434
11,GCUACAAUCUAGAACAAGATT against Olfr361,inactive: -0.915
12,CCUUCACUCUGUAAGGUGCTT against Card19,inactive: -0.276
13,GGCGAAGGGCAAGAAUAAATT against Hes1,active: 2.16
14,GGUCUCAAGGACAAAAAAGTT against Sult3a1,inactive: -1.48
15,GGCCAAUAUAGGUUAUAGATT against Anapc11,inactive: -0.456
16,GCUAACUCUUCGGCAGGAATT against Sspo,inactive: 1.62
17,GGUUCAAAUGUUCUCCAUATT against 9530080O11Rik,active: 2.55
18,GGAUGAAUGUUGCUUGUGUTT against Arhgef37,inactive: -0.243
19,GGUGCAUUUUCUAGAAUCATT against Usp45,inactive: 0.933
20,GGUGAAUUUCCUUCUACAUTT against Tas1r1,inactive: -1.56
21,GCAUCAUGGUCACAAAUGGTT against Ncr1,inactive: -0.613
22,GGAGGAUCCACAUGAUGACTT against Fads6,inactive: -1.48

# Five successive entries from above, quoted:
row,Sequence,z-score
12,CCGCCUCGUACAUGAUAUUTT against Mrgpra2b,inactive: 0.653
13,CCACUGUCCCAAACAUGUUTT against Olfr847,inactive: -1.46
14,GGAGAGGGUCUUAGUCAGATT against Wasf1,inactive: 0.802
15,CCAAACUUACAAAUAUGCGTT against Sgpp1,inactive: 1.35
16,GGGAAGAAACAUCAGACUATT against Sf3a2,inactive: -1.91

# More results follow:

row,Sequence,z-score
1,GGCAUGGAGAGAAGAAAAGTT against Rassf7,inactive: -0.433
2,GGAGUGAACCUUUGAAAGUTT against Rbak,inactive: 1.82
3,GGCAAGAGAUCAUAAACUGTT against Neurl1b,inactive: -0.421
4,GGUGAUGCAAGUGGUUCGGTT against Elmo3,inactive: -0.523
5,GGAUUUUAAUGUAGGAGAGTT against Pip4k2b,inactive: -0.77
6,GGCCUUCAAGGUGUUUGAGTT against Flcn,inactive: -1.61
7,CGAUAAAAGAGAGAUGAUUTT against Rap1gds1,inactive: 0.699
8,CGAAUAUCCAGAAAUCAAUTT against Sf1,inactive: -1.52
9,GCCCUGGAGUCCUAAUAAATT against Pmvk,inactive: -0.105
10,GGAAACUGGCUUAGCAAUGTT against Trappc4,inactive: -0.333
11,GCAGCAAUACAUCCUUCAUTT against Cdh1,inactive: 1.12
12,GGUGAGGUUCAAACAUUCUTT against Sdf2,inactive: 0.0627
13,GGAGGUGUGGGUACCUUCUTT against Snx30,inactive: -0.746
14,GCUGAACAUUAGCUUCAAUTT against Lrrc9,inactive: -1.42
15,GGCAUGCAACUAUAUAGUUTT against Slfn4,inactive: 0.524
16,GGGAAAUCUACUUUGCGUATT against Khdrbs3,inactive: 0.103
17,GCAUAGAAACCAUGCACAUTT against Acot2,active: 3.28
18,GGCACAAGAUUAUUUAAGUTT against Tmem68,inactive: 0.362
19,GGAAAUGGUCCCUCUGUGUTT against Tspoap1,active: -2.99
20,GGUGGUUCUCAGCUGUGUATT against Arhgef18,inactive: -1.08
21,CGAUACCCAACUGUUGAAATT against Ap5m1,inactive: 1.12
22,GGUCGACUUAAGAUAAUAATT against Itgb6,inactive: -0.294

row,Sequence,z-score
1,UCCUAGAGUCAUCAUCAUATT against A530064D06Rik,inactive: -0.44
2,CGCGAAGGGAAGGGUUGUATT against Pfn4,inactive: 0.625
3,GGAUGGAAGCGUAAAUUUCTT against Angpt4,inactive: 0.781
4,GCAUGGAGAGACAGUUAACTT against Ift74,inactive: 1.07
5,GCUACAGGUAGACAUUCCATT against Ubn1,inactive: -0.184
6,GGCAACAUAAUAAUUGCAGTT against Olfr1212,inactive: 0.635
7,GGUCAAACUUAGCGACAAUTT against Zdhhc8,inactive: 0.576
8,GGCCAAACCAUCAUGCAAGTT against Nfya,inactive: 0.455
9,GGACAUAGUAUACGAAAAUTT against Zfp341,inactive: 0.371
10,CCAUUUUGCCUGUGAUAUGTT against Olfr1254,inactive: 0.022
11,CCAAUUCGUGUUAAGGAACTT against Riox2,inactive: 0.212
12,CCUGGUAAAAGACUGGGCUTT against Dnal1,inactive: 1.76
13,GGAGGCAGCCAAAGAAAACTT against Bmp8a,inactive: 0.462
14,GGCAAAUAGUGACCACACGTT against Dmp1,inactive: -0.593
15,GGACUUCAUCUCCAAACGCTT against Snx18,inactive: 0.286
16,GGACGUGAACCAGGAUGUUTT against Cblc,inactive: -0.754
17,CGAUGUGGACGAGAAGCUATT against Asap2,inactive: -0.702
18,GCGCAGGAUACCCUAUCUATT against 4930542C12Rik,inactive: 0.52
19,GGCUGGCAAUGUGAGCAGUTT against Gbx1,inactive: 0.914
20,GGUAUUGCUUUCACAUUAUTT against Efr3a,inactive: 0.434
21,GGGUGACUAUGAGAAGGAGTT against Lmx1b,inactive: -0.841
22,CGCUCGUUACCUAAAGCAGTT against Nwd1,active: -2.78

# 3 entries from above in another layout.
row	Sequence	z-score
17	GCAUAGAAACCAUGCACAUTT against Acot2	active: 3.28
18	GGCACAAGAUUAUUUAAGUTT against Tmem68	inactive: 0.362
19	GGAAAUGGUCCCUCUGUGUTT against Tspoap1	active: -2.99

# Continuation:

row,Sequence,z-score
1,GGACCUAUAAGAACAGUGATT against Psmf1,inactive: 0.436
2,CCAUUGAAAAACUGGACAGTT against Olfr1463,active: 3.26
3,GCUACGCAAUAAGACCACATT against Lamc3,active: 2.25
4,GGGACCAAGAAGGAUAACUTT against Flrt1,inactive: 1.4
5,GCUGGCCUUAUGUAAAUCUTT against Galc,inactive: -0.756
6,GGCAUCUGUAAGCCAGAUCTT against Acad10,inactive: -0.306
7,GGCUACGGUGAUAGAGAUGTT against Rbmxl1,inactive: 1.99
8,GGAAGAUGAUGAUCAAACUTT against Zbed4,inactive: -0.828
9,GCCACGACCUGGAACAACUTT against Taf6l,inactive: -0.479
10,GGAGAAUGAAGAGUUAGACTT against Nfu1,inactive: 0.608
11,CCAAGUUUAACAUCCAGGGTT against Pfkm,inactive: -0.126
12,GGGAUUGGCUACGACUUCATT against Cbs,active: 2.06
13,GGUUUGUCAACAAGUGUCATT against Dicer1,active: -2.17
14,GCCACGUUCAAACAGUACCTT against Slc1a7,active: 3.94
15,GUCCCUGAACCUGUGGUAUTT against Emp3,inactive: 1.26
16,GGAACAGAGAUAUGAAACATT against Olfr738,active: -2.4
17,GGCUCCAAUAAAGUGCCUUTT against Elf3,inactive: 1.46
18,GGUGAUACAGAUUCUAGGUTT against Spaca6,inactive: -0.434
19,GCUAUUGGUGUAUUUCAAUTT against Tecrl,inactive: -0.876
